This note sets out measurements from patent US20110245326.

The subject of this data set is Iron-responsive protein (IRP). The experiment in a line: activity in cells. As to conditions: IRP does not inducibly repress 5-1.2 reporter in yeast (NS), protein details: expressed in S. cerevisiae, variant of 5-1.13, dose not given here.

For at least one entry, the source does not settle the construct or the ends of the probe. Negatives hold for the conditions tested.

Regarding “GGAUCCAGGCAGAGAAAGGUCGAUACGGACGGAAUGUGAUGGCCUGGAUCC [5-1.2]”, the “functional effect of the aptamer” value is recorded as “not active”.
